These results are taken from publication PMC8406200, “SAMase of Bacteriophage T3 Inactivates Escherichia coli’s Methionine S-Adenosyltransferase by Forming Heteropolymers” (mBio, 2021).

Results are given in words; binding and its absence hold for the method and conditions named. Binding seen in cells or lysates may run through a third protein. Some binding calls cover weakened binding; strength is not graded here. Sequences can lack the tags named with a protein.

The target of the assay is T1, S-Adenosylmethionine lyase (SAMase) of bacteriophage T3, C-terminal His-tagged (bacteriophage T3) (UniProt P07693).
T1 sequence: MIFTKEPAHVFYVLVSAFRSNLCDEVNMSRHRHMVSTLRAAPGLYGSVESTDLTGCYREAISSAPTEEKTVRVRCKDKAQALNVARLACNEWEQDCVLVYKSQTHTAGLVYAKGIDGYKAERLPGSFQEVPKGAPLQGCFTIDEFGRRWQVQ
Nature of the assay: pull-down; 4 μM 6×His-tagged SAMase mixed with E. coli cell lysate, 30 min at room temperature, Ni-NTA bead spin columns, 50 mM NaH2PO4 pH 8, 300 mM NaCl; Western blot with anti-E. coli MAT polyclonal antibodies; only the target purified.

B1: E. coli methionine S-adenosyltransferase (MAT), recombinant, C-terminal His6 (enzyme, E. coli MG1655, UniProt P0A817 1-384, looked up)
chain: MAKHLFTSESVSEGHPDKIADQISDAVLDAILEQDPKARVACETYVKTGMVLVGGEITTSAWVDIEEITRNTVREIGYVHSDMGFDANSCAVLSAIGKQSPDINQGVDRADPLEQGAGDQGLMFGYATNETDVLMPAPITYAHRLVQRQAEVRKNGTLPWLRPDAKSQVTFQYDDGKIVGIDAVVLSTQHSEEIDQKSLQEAVMEEIIKPILPAEWLTSATKFFINPTGRFVIGGPMGDCGLTGRKIIVDTYGGMARHGGGAFSGKDPSKVDRSAAYAARYVAKNIVAAGLADRCEIQVSYAIGVAEPTSIMVETFGTEKVPSEQLTLLVREFFDLRPYGLIQMLDLLHPIYKETAAYGHFGREHFPWEKTDKAQLLRDAAGLK
notes: Homotetramer (dimer of dimers); also called EcMAT; E. coli MAT; source: E. coli BL21(DE3) (pET24a), purified (Ni-NTA, SEC)
For B1, the binding entry is “binds”.
